Results from patent publication US20240140970A1, “A […], AND PREPARATION METHOD AND USE THEREOF” (ASCENTAWITS PHARMACEUTICALS, LTD., priority 2021, published 2024).
For at least one compound, name, drawing or mass did not settle the structure.

Key:
[1] = Stability of AST-2660 and AST-2660-D8 methanol stock/working solutions (LC-MS/MS peak area, stored vs fresh solution); type: physicochemical; details: 10 μg/ml AST-2660 methanol working solution
Method: The relevant parameters of the LC-MS/MS experimental method are provided.
AST-2660 (prepared by referring to Example 1 and selecting non-deuterated raw materials) standard stock solution (methanol solution with a concentration of 1.0 mg/ml): an appropriate amount of AST-2660 was taken, added with an appropriate amount of methanol, diluted and mixed thoroughly to obtain 1.0 mg/ml of solution.
A 100 μL standard stock solution of AST-2660 was taken, added with 9900 μL of methanol, diluted and mixed thoroughly to obtain 10.0 μg/ml of calibration standard working solution.
[…] A 20 μL of internal standard stock solution of AST-2660-D8 was taken, added with 9980 μL methanol, diluted and mixed thoroughly to obtain 100 ng/ml of internal standard working solution.
It can be seen from Table 10 that the accuracy of the stability of the AST-2660 working solution and the internal standard AST-2660-D8 working solution was within ±8.1%, and the precision was less than 5.5%. Stability analysis criteria: the difference between the storage stable solution and the freshly prepared solution must be within ±10.0%, and the CV of each replicate experiment must not be greater than 10.0%. Therefore, both AST-2660 and AST-2660-D8 (internal standard) working solutions had good stability and met the requirements under various storage conditions.

[2] = Stability of treated (extracted) human plasma samples of AST-2660 at 4° C. (LC-MS/MS); type: physicochemical; details: treated human plasma sample, t = 54 hours
Method: The detection method established in example 4 was used to detect the content of AST-2660 in the human plasma to be tested.
Matrix: the mixed normal human plasma containing anticoagulant (K2 EDTA) • a: the internal standard working solution: AST-2660-D8 was taken, added with methanol, and diluted to prepare a solution containing about 100 ng per 1 ml. • b: the solution to be tested (no internal standard compound was added to the solution to be tested at this time): it was obtained by taking a blood sample to be tested. • c: the standard working solution (no internal standard compound was added to the standard working solution at this time): an appropriate amount of AST-2660 was taken and accurately weighed, dissolved with methanol, and diluted to prepare a solution containing about 1.0 mg per 1 ml, which was used as the standard working stock solution. An appropriate amount of the standard working stock solution was taken, added with the matrix and diluted to prepare standard working solutions with different concentrations containing about 200 ng, 160 ng, 100 ng, 50 ng, 10 ng, 2.0 ng, 1.0 ng and 0.5 ng per 1 ml, respectively. (The solution was stored at −70° C.) • d: the quality control sample solution: an appropriate amount of AST-2660 was taken and accurately weighed, dissolved with methanol, and diluted to prepare a solution containing about 10 μg per 1 ml, which was used as the quality control working stock solution. […]
Calculation results: the relationship function y=f (x) of the ratio of the peak area of the AST-2660 to that of the internal standard was obtained from AST-2660 standard working solutions with different concentrations. The ratio of the peak area of the AST-2660 to that of the internal standard was determined from the solution to be tested after extraction, and substituted into the relationship function y=f (x) to calculate the concentration of the metabolite II in the solution to be tested.

With `O=P([O-])(N1CC1)N1CC1.[Na+]` [AST-2660] the “RE (% difference, peak area stock vs fresh solution)” value ([1]; 30 hours at room temperature) was “RE: −8.1%”, the “RE (% difference, peak area stock vs fresh solution)” value ([1]; 26 days at −70° C.) was “RE: 0.4%” and the “% Dev” value ([2]; PSS_QC1 1.5 ng/ml) was 12.4%. For the same molecule, the “% Dev” value ([2]; PSS_QC3 60 ng/ml) was 3.7% and the “% Dev” value ([2]; PSS_QC4 150 ng/ml) was 12.1%.
